PubChem BioAssay AID1259254 – NCATS – 2017

- Purpose: 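Gene knock-downs that lead to re-replication, shown by excess G2 DNA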 (primary screen)
- Cell system: human HCT116 colorectal cancer cells
- Reagents: single siRNA against human genes
- Duration: 3 days
- Measured: 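Imaged Hoechst DNA stain sorts each cell into a cycle phase by DNA amount; per plate, G2 fraction set to 0% for non-targeting and 100% for GMNN siRNA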
- Reading the numbers: G2 robust z-score: higher = more G2 cells, more excess DNA replication
- Active means: 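Active siRNAs have a G2 robust z of 5 or more median absolute deviations over the median, which in these data means about 38% or higher of GMNN control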
Here is a random part of about 59,000 reagents tested. About 1,550 of them (2.6%) count as active. 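G2 share is only a proxy for re-replication; each gene was hit by three separate siRNAs, and active genes were retested.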 Unmarked entries are inactive. Reagents against one gene are numbered here. Further read-outs or replicates are left out here. Not stated in the record: the amount of reagent.

G2 robust z-score, by gene and reagent
EVA1A (GeneID 84141): #1 -0.982; #2 0.693; #3 0.118
RFPL1 (GeneID 5988): #1 -1.14; #2 -0.209; #3 1.47
GABPA (GeneID 2551): #1 0.202; #2 -0.967; #3 -0.527
ELF5 (GeneID 2001): #1 0.651; #2 -0.875; #3 -0.723
PDE9A (GeneID 5152): #1 1.82; #2 -0.486; #3 -0.563
FBXO10 (GeneID 26267): #1 2.97; #2 -0.526; #3 0.453
FBXO25 (GeneID 26260): #1 -0.279; #2 0.101; #3 -0.674
DRC7 (GeneID 84229): #1 -1.02; #2 -1.11; #3 -0.383
TNFRSF11A (GeneID 8792): #1 -0.237; #2 2.48; #3 2.89
TUBB2A (GeneID 7280): #1 1.44; #2 1.02; #3 1.04
